Results are given in words; binding and its absence hold for the method and conditions named. In cells and extracts the contact can be indirect. Some results given as binding are weak or reduced against the parent protein; the word gives no strength. For part of these data: Where a sequence is shown, tags or fusion partners need not be part of it. Blank lines part the entries; values can stand above or below the binder they belong to.
Key:
[1] = target: Hsp60 (endogenous, FADU cells) (human (endogenous in FADU)), P10809; assay: co-IP; FADU cells infected with vector or shRNAs for Hsp60, mtHsp70 or Lon; IP of endogenous proteins with anti-Lon, anti-mtHsp70 or anti-Hsp60, western blot; conditions: remark: other sources report otherwise
[2] = target: Hsp60 (GST pull-down assay), P10809; assay: pull-down; GST pull-down in vitro; approximately 0.3 μg of the GST proteins added; conditions: remark: other sources report otherwise
[3] = target: mtHsp70 (endogenous, FADU cells) (human (endogenous in FADU)) (UniProt P38646); assay: co-IP; FADU cells infected with vector or shRNAs for Hsp60, mtHsp70 or Lon; IP of endogenous proteins with anti-Lon, anti-mtHsp70 or anti-Hsp60, western blot

Amino acid sequences for entries named in this document (tags omitted). Residues count along the entry.
UniProt P38646, residues 47-679: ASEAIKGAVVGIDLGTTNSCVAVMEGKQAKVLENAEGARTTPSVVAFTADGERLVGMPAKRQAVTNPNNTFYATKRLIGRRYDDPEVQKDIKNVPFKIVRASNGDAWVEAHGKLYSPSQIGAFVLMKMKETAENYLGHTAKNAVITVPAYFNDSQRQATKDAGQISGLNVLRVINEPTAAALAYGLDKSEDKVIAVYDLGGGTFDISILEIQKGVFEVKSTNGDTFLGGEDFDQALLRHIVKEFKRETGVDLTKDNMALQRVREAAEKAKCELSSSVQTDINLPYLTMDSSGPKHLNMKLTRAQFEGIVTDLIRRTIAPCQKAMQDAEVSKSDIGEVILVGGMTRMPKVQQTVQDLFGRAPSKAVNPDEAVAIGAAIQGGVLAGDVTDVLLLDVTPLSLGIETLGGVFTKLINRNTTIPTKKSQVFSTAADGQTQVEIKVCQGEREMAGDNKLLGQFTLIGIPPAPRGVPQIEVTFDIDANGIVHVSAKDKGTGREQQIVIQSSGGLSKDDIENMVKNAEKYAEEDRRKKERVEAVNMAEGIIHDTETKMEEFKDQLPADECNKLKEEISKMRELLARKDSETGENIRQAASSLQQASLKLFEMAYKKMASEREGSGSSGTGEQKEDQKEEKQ

binding [1]: binds
B1: endogenous Lon (FADU cells), P36776 68-959 (enzyme)
chain: FWEASSRGGGAFSGGEDASEGGAEEGAGGAGGSAGAGEGPVITALTPMTIPDVFPHLPLIAITRNPVFPRFIKIIEVKNKKLVELLRRKVRLAQPYVGVFLKRDDSNESDVVESLDEIYHTGTFAQIHEMQDLGDKLRMIVMGHRRVHISRQLEVEPEEPEAENKHKPRRKSKRGKKEAEDELSARHPAELAMEPTPELPAEVLMVEVENVVHEDFQVTEEVKALTAEIVKTIRDIIALNPLYRESVLQMMQAGQRVVDNPIYLSDMGAALTGAESHELQDVLEETNIPKRLYKALSLLKKEFELSKLQQRLGREVEEKIKQTHRKYLLQEQLKIIKKELGLEKDDKDAIEEKFRERLKELVVPKHVMDVVDEELSKLGLLDNHSSEFNVTRNYLDWLTSIPWGKYSNENLDLARAQAVLEEDHYGMEDVKKRILEFIAVSQLRGSTQGKILCFYGPPGVGKTSIARSIARALNREYFRFSVGGMTDVAEIKGHRRTYVGAMPGKIIQCLKKTKTENPLILIDEVDKIGRGYQGDPSSALLELLDPEQNANFLDHYLDVPVDLSKVLFICTANVTDTIPEPLRDRMEMINVSGYVAQEKLAIAERYLVPQARALCGLDESKAKLSSDVLTLLIKQYCRESGVRNLQKQVEKVLRKSAYKIVSGEAESVEVTPENLQDFVGKPVFTVERMYDVTPPGVVMGLAWTAMGGSTLFVETSLRRPQDKDAKGDKDGSLEVTGQLGEVMKESARIAYTFARAFLMQHAPANDYLVTSHIHLHVPEGATPKDGPSAGCTIVTALLSLAMGRPVRQNLAMTGEVSLTGKILPVGGIKEKTIAAKRAGVTCIVLPAENKKDFYDLAAFITEGLEVHFVEHYREIFDIAFPDEQAEALAVER

binding [2]: binds
B2: Lon (GST pull-down assay), P36776 68-959 (enzyme)
chain: FWEASSRGGGAFSGGEDASEGGAEEGAGGAGGSAGAGEGPVITALTPMTIPDVFPHLPLIAITRNPVFPRFIKIIEVKNKKLVELLRRKVRLAQPYVGVFLKRDDSNESDVVESLDEIYHTGTFAQIHEMQDLGDKLRMIVMGHRRVHISRQLEVEPEEPEAENKHKPRRKSKRGKKEAEDELSARHPAELAMEPTPELPAEVLMVEVENVVHEDFQVTEEVKALTAEIVKTIRDIIALNPLYRESVLQMMQAGQRVVDNPIYLSDMGAALTGAESHELQDVLEETNIPKRLYKALSLLKKEFELSKLQQRLGREVEEKIKQTHRKYLLQEQLKIIKKELGLEKDDKDAIEEKFRERLKELVVPKHVMDVVDEELSKLGLLDNHSSEFNVTRNYLDWLTSIPWGKYSNENLDLARAQAVLEEDHYGMEDVKKRILEFIAVSQLRGSTQGKILCFYGPPGVGKTSIARSIARALNREYFRFSVGGMTDVAEIKGHRRTYVGAMPGKIIQCLKKTKTENPLILIDEVDKIGRGYQGDPSSALLELLDPEQNANFLDHYLDVPVDLSKVLFICTANVTDTIPEPLRDRMEMINVSGYVAQEKLAIAERYLVPQARALCGLDESKAKLSSDVLTLLIKQYCRESGVRNLQKQVEKVLRKSAYKIVSGEAESVEVTPENLQDFVGKPVFTVERMYDVTPPGVVMGLAWTAMGGSTLFVETSLRRPQDKDAKGDKDGSLEVTGQLGEVMKESARIAYTFARAFLMQHAPANDYLVTSHIHLHVPEGATPKDGPSAGCTIVTALLSLAMGRPVRQNLAMTGEVSLTGKILPVGGIKEKTIAAKRAGVTCIVLPAENKKDFYDLAAFITEGLEVHFVEHYREIFDIAFPDEQAEALAVER

binding [3]: binds
B3: endogenous Lon (FADU cells) (enzyme, UniProt P36776 68-959)
chain: FWEASSRGGGAFSGGEDASEGGAEEGAGGAGGSAGAGEGPVITALTPMTIPDVFPHLPLIAITRNPVFPRFIKIIEVKNKKLVELLRRKVRLAQPYVGVFLKRDDSNESDVVESLDEIYHTGTFAQIHEMQDLGDKLRMIVMGHRRVHISRQLEVEPEEPEAENKHKPRRKSKRGKKEAEDELSARHPAELAMEPTPELPAEVLMVEVENVVHEDFQVTEEVKALTAEIVKTIRDIIALNPLYRESVLQMMQAGQRVVDNPIYLSDMGAALTGAESHELQDVLEETNIPKRLYKALSLLKKEFELSKLQQRLGREVEEKIKQTHRKYLLQEQLKIIKKELGLEKDDKDAIEEKFRERLKELVVPKHVMDVVDEELSKLGLLDNHSSEFNVTRNYLDWLTSIPWGKYSNENLDLARAQAVLEEDHYGMEDVKKRILEFIAVSQLRGSTQGKILCFYGPPGVGKTSIARSIARALNREYFRFSVGGMTDVAEIKGHRRTYVGAMPGKIIQCLKKTKTENPLILIDEVDKIGRGYQGDPSSALLELLDPEQNANFLDHYLDVPVDLSKVLFICTANVTDTIPEPLRDRMEMINVSGYVAQEKLAIAERYLVPQARALCGLDESKAKLSSDVLTLLIKQYCRESGVRNLQKQVEKVLRKSAYKIVSGEAESVEVTPENLQDFVGKPVFTVERMYDVTPPGVVMGLAWTAMGGSTLFVETSLRRPQDKDAKGDKDGSLEVTGQLGEVMKESARIAYTFARAFLMQHAPANDYLVTSHIHLHVPEGATPKDGPSAGCTIVTALLSLAMGRPVRQNLAMTGEVSLTGKILPVGGIKEKTIAAKRAGVTCIVLPAENKKDFYDLAAFITEGLEVHFVEHYREIFDIAFPDEQAEALAVER
